Measurements as given in patent US20190105367A1, “ANTIMICROBIAL 4-OXOQUINOLIZINES” (Emergent Product Development Gaithersburg Inc., priority 2011, published 2019).
For part of these data: At least one read-out could not be matched to a standard name with certainty. For part of these data: For at least one compound, name, drawing or mass did not settle the structure.

Legend:
[1] = tested on: strains of A. baumannii and one strain of Acinetobacter sp.; assay: MIC without polymyxin B, panel of Acinetobacter strains (Example 4); assay type: cell-based; conditions: 1st experiment; resistant strains, ATCC 19606, A329, A390 and A473 not taken
[2] = tested on: strains of A. baumannii and one strain of Acinetobacter sp.; assay: MIC with sub-inhibitory concentrations (0.25x MIC) of polymyxin B, panel of Acinetobacter strains (Example 4); assay type: cell-based

SMILES | MIC range without PB Oct. 1, 2006 n = 8 [1] | Change of activity (MIC) in presence of polymyxin B compared to without polymyxin B [2]
Cc1c(-c2ccc(N)cc2)ccn2c(=O)c(C(=O)O)cc(C3CC3)c12 [Compound 8, 8-(4-amino-phenyl)-1-cyclopropyl-9-methyl-4-oxo-quinolizine-3-carboxylic acid] | 4 to 32 µg/mL | 
COc1c(N2C[C@@H]3CCCN[C@@H]3C2)c(F)cc2c(=O)c(C(=O)O)cn(C3CC3)c12 [Moxifloxacin] |  | not significantly affected
C[C@H]1COc2c(N3CCN(C)CC3)c(F)cc3c(=O)c(C(=O)O)cn1c23 [Levofloxacin, reference compound] |  | not significantly affected
